Out of some 360,000 compounds screened, about 7,500 (2.1%) were called active. The shares of active, inactive and inconclusive entries below differ from those in the screen. The call rests on the fitted dose curve; in most records, active means well fitted inhibition curve with a large enough effect; inconclusive means small, poorly fitted or top-dose-only effect, or effect the other way; inactive means flat fitted curve, though single readings scatter. Potencies of inconclusive entries are doubtful fits and often do not repeat.
Experiment: Nrf2 qHTS screen for inhibitors; further: nearly all actives have a fitted effect of over 60% in size
Details: A549 ARE-Fluc reporter, luciferase luminescence, 18-24 h; series mostly up to 46 µM
Summary of the method: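 Nrf2 function is reported as luminescence of an ARE-controlled luciferase in A549 cells. Compounds were tested at several concentrations, and a CellTiter-Fluor read on the same wells flagged cytotoxicity.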
Potency means the concentration at half of the fitted maximal effect.

| Structure (SMILES) | Potency |
| --- | --- |
| COc1cc(-c2nc3c4ccccc4nc(=S)n3[nH]2)cc(OC)c1OC | inconclusive: 23.1 µM [falling, single point] |
| COc1ccc(-c2noc(-c3nnn(-c4cc(C)ccc4C)c3N)n2)cc1 | inconclusive: 3.66 µM [activator, partial curve, poor fit] |
| NS(=O)(=O)c1ccc(N/C=C\C(=O)c2ccc(F)cc2)cc1 | inactive |
| CCc1cccc2c(C(=O)C(F)(F)F)cn(CC(=O)NCC3CCCO3)c12 (stereo not given) | inconclusive: 23.1 µM [falling, single point] |
| CCC(=O)NC(Nc1sc2c(c1C(=O)OC)CCC2)C(Cl)(Cl)Cl (stereo not given) | inactive |
| Cc1ccc(C)c(S(=O)(=O)Nc2ccc(C(=O)N3CC(C)OC(C)C3)cc2)c1 (stereo not given) | inconclusive: 32.6 µM [falling, single point] |
| CC(=O)c1cnn(-c2ccc(Cl)cc2)c1C | inconclusive: 20.6 µM [activator, partial curve, poor fit] |
| C/C(=N\Nc1ccccn1)c1ccc2c(c1)OCO2 | inconclusive: 29.1 µM [activator, single point] |
| Cc1nc(-c2ccc(NC(=O)CC(C)C)cc2)cs1 | inconclusive: 2.59 µM [activator, full curve] |
| COc1ccc2cc3cc(C(=O)N4CCCC(C)C4)oc3nc2c1 (stereo not given) | inconclusive: 1.03 µM [activator, full curve] |
| C=Cc1ccc(Cn2c(C(=O)O)c(CNCc3cc(Br)ccc3OC)c3ccc(C)cc32)cc1 | inconclusive: 29.1 µM [activator, single point] |
| CCCn1c(N)c(C(=O)CSc2ncn[nH]2)c(=O)n(C)c1=O | inactive |
| CC(C)Cc1ccc(C(C)NC(=O)Cc2ccc(S(=O)(=O)N3CCOCC3)s2)cc1 (stereo not given) | inconclusive: 29.1 µM [falling, single point] |
| COc1ccc(-c2cn3c(C)c(C(=O)N4CCN(c5ccccc5F)CC4)sc3n2)cc1 | inconclusive: 29.1 µM [falling, single point] |
| O=C(c1ccc(Cl)c(S(=O)(=O)NCc2ccco2)c1)N1CCN(c2ccc(F)cc2)CC1 | inconclusive: 23.1 µM [falling, partial curve, poor fit] |
| CSc1ccc2nnc(-c3ccc(C)cc3)n2n1 | inactive |
| O=C(CC(NCc1cccnc1)C(=O)O)Nc1ccc(F)cc1 (stereo not given) | inactive |
| Cc1cccc(NC(=S)NC(=O)C(c2ccccc2)c2ccccc2)n1 | inconclusive: 29.1 µM [falling, single point] |
| COC(=O)[C@@]1(Cc2ccc(OC)cc2)[C@H]2c3cc(C(=O)N(C)C)n(Cc4ccc(OC(F)(F)F)cc4)c3C[C@H]2CN1C(=O)c1ccccc1 | inconclusive: 18.4 µM [falling, single point] |
| Cc1cc(OCC(=O)C(C)(C)C)c2c(C)c(C)c(=O)oc2c1 | inconclusive: 9.2 µM [falling, partial curve, poor fit] |

| Structure (SMILES) | Potency |
| --- | --- |
| CCO[C@@H]1OC(C(=O)N2CCN(Cc3ccc4c(c3)OCO4)CC2)=C[C@H](c2ccc(C(F)(F)F)cc2)[C@H]1CCCO | inconclusive: 23.1 µM [falling, partial curve, poor fit] |
| CCCNC(=O)c1ccc(-n2c(-c3ccccc3)cc3c2CCC(C)C3)cc1 (stereo not given) | inconclusive: 29.1 µM [falling, single point] |
| Cc1cc(C)n(Cc2ccc(Cl)cc2Cl)c(=O)c1S(=O)(=O)c1ccccc1 | inconclusive: 29.1 µM [activator, single point] |
| N#C/C(=C1/CCCCCN1)c1nc2ccccc2[nH]1 | inconclusive: 1.46 µM [activator, full curve, poor fit] |
| CCCNC(=O)c1cnc(-c2ccccc2)nc1-c1ccccc1 | inconclusive: 23.1 µM [falling, partial curve, poor fit] |
| O=C(Nc1ccccc1)c1cc([N+](=O)[O-])ccc1NCc1cccnc1 | inconclusive: 29.1 µM [falling, single point] |
| O=C(c1cc2nc(-c3ccco3)cc(C(F)(F)F)n2n1)N1CCN(c2ccc(F)cc2)CC1 | inconclusive: 23.1 µM [falling, partial curve, poor fit] |
| Cc1cc(=O)oc2c3c(cc(OCC(=O)NC(C)C)c12)OC(C)(C)CC3 | inconclusive: 29.1 µM [falling, single point] |
| CC1(C)CC(=O)C2=C(C1)NC(SCC(=O)Nc1ccccc1)=C(C#N)C2c1ccco1 (stereo not given) | inconclusive: 18.4 µM [falling, single point] |
| Cc1cccc2c1cnn2C(=O)Nc1ccc(Br)cc1F | inconclusive: 1.03 µM [activator, partial curve] |
| COc1ccc(Nc2cc3n(c(=O)n2)CCc2cc(OC)c(OC)cc2-3)c(C)c1 | inconclusive: 10.3 µM [falling, partial curve] |
| Cc1cc(-c2ccccc2)nc(N2CCC(C(=O)NC(C)C)CC2)n1 | inconclusive: 18.4 µM [activator, single point] |
| Cc1ccccc1CN1C(=O)c2ccccc2S(=O)(=O)c2ccc(C(=O)OCC3CCCO3)cc21 (stereo not given) | inactive |
| COc1ccc(NC(=O)c2cccs2)cc1O | inconclusive: 29.1 µM [activator, partial curve, poor fit] |
| COc1ccc(C(=O)O/N=C(\N)c2ccc(Cl)cc2)cc1 | inconclusive: 18.4 µM [activator, partial curve] |
| CCCCOC(=O)c1ccc(NC(=O)/C=C/c2cccs2)cc1 | inactive |
| CN1CCN(c2ccc(NC(=S)NC(=O)/C=C/c3ccco3)cc2)CC1 | inconclusive: 4.11 µM [activator, full curve] |
| CSc1ccc(OCC(=O)Nc2ccc(N3CCOCC3)c(Cl)c2)cc1 | inconclusive: 18.4 µM [falling, partial curve, poor fit] |
| CCCc1cc(C(=O)OC)c(NC(=O)OCC)s1 | inconclusive: 6.51 µM [activator, partial curve, poor fit] |
| COc1ccc(OC)c(NC(=O)CN(c2ccc(C)cc2)S(=O)(=O)c2c(C)noc2C)c1 | inconclusive: 29.1 µM [falling, single point] |

From PubChem BioAssay AID504444 (National Center for Advancing Translational Sciences (NCATS), 2011)
